# Data as given in PubChem BioAssay AID1259327 (Drosophila RNAi Screening Center, 2017)
# Test: 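Data from controls in screens of zinc and manganese toxicity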
# Cells: Drosophila S2R+ cells
# Reagents: long dsRNA against Drosophila genes
# Time to read-out: 5 days (water added on day 4, read one day later)
# Treatment: water added as vehicle, no metal, one day before read-out
# Measured: 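Luciferase ATP signal per well, normalised to plate mean, duplicate average converted to z-score across plates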
# Scale: ATP z-score: higher = more total ATP than typical wells; ATP luminescence: higher = more total ATP
# Call rule: 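a hit is any knock-down whose absolute ATP z-score is greater than 1.5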
# Calls: active = hit: ATP up or down; inactive = no clear ATP change
# This is a random part of about 3,100 reagents. In the full data, 378 (12%) were called active. 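Hits include both directions; z-score sign shows ATP rise or fall; raw luminescence values are not plate-normalised.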 Not given: the amount of reagent.
target,dsRNA,"ATP z-score, duplicate mean","ATP luminescence, replicate 1 (RLU)","ATP luminescence, replicate 2 (RLU)",outcome
Dh31-R (Diuretic hormone 31 Receptor),DRSC06669,-0.823,5.59e5,5.31e5,inactive
Dh31-R (Diuretic hormone 31 Receptor),DRSC23417,-0.333,8.04e5,7.63e5,inactive
CG10062,DRSC24932,-0.406,7.71e5,8.29e5,inactive
TrissinR (Trissin receptor),DRSC25084,-0.35,9.41e5,6.35e5,inactive
TrissinR (Trissin receptor),DRSC26283,-0.225,8.92e5,7.52e5,inactive
CG31663,DRSC00078,-1.64,2.67e5,8.83e5,active
CG31663,DRSC00389,-0.368,4.67e5,4.38e5,inactive
CG31663,DRSC00390,-0.779,6.84e5,6.04e5,inactive
CG31663,DRSC00393,-1.52,5.52e5,5.46e5,active
Nmdar2 (NMDA receptor 2),DRSC18183,-0.706,6.28e5,7.06e5,inactive
Nmdar2 (NMDA receptor 2),DRSC18569,0.0795,4.75e5,6.92e5,inactive
Ptp69D (Protein tyrosine phosphatase 69D),DRSC11258,-0.457,8.10e5,8.60e5,inactive
Ptp69D (Protein tyrosine phosphatase 69D),DRSC36691,0.23,6.33e5,5.64e5,inactive
Ptp69D (Protein tyrosine phosphatase 69D),DRSC36692,-1.19,4.96e5,4.61e5,inactive

Entries listed so far whose gene name begins with N or n:
target,dsRNA,"ATP z-score, duplicate mean","ATP luminescence, replicate 1 (RLU)","ATP luminescence, replicate 2 (RLU)",outcome
Nmdar2 (NMDA receptor 2),DRSC18183,-0.706,6.28e5,7.06e5,inactive
Nmdar2 (NMDA receptor 2),DRSC18569,0.0795,4.75e5,6.92e5,inactive

Further entries:
target,dsRNA,"ATP z-score, duplicate mean","ATP luminescence, replicate 1 (RLU)","ATP luminescence, replicate 2 (RLU)",outcome
COX4 (Cytochrome c oxidase subunit 4),DRSC02091,-1.63,3.18e5,4.15e5,active
COX4 (Cytochrome c oxidase subunit 4),DRSC23915,-1.89,5.68e5,6.63e5,active
Or22c (Odorant receptor 22c),DRSC00766,-0.984,6.39e5,5.71e5,inactive
Or22c (Odorant receptor 22c),DRSC26292,-1.13,8.86e5,1.05e6,inactive
CG15221,DRSC19659,1.36,7.34e5,8.18e5,inactive
Gr98d (Gustatory receptor 98d),DRSC14571,-0.705,5.08e5,6.37e5,inactive
Gr98d (Gustatory receptor 98d),DRSC24547,0.615,9.58e5,8.95e5,inactive
mthl6 (methuselah-like 6),DRSC10234,0.74,1.00e6,9.82e5,inactive
mthl6 (methuselah-like 6),DRSC39848,-0.243,4.67e5,4.57e5,inactive
CG42816,DRSC11230,-0.583,8.28e5,8.11e5,inactive
CG9254,DRSC01969,0.835,7.86e5,8.43e5,inactive
CG30049,DRSC21345,0.0366,6.25e5,5.39e5,inactive
CG30049,DRSC26709,0.249,1.24e6,1.21e6,inactive
CG33673,DRSC00084,0.683,8.69e5,7.61e5,inactive
CG33673,DRSC38938,1.9,6.41e5,8.41e5,active
